Drawing on patent US20150017154A1, this text covers binding for one substance.

These are yes or no findings as the source states them, for the method shown. Some entries that bind do so weakly or less than the wild type.

Test [1] has as its target caninised anti-NGF antibody comprising the caN-HCB heavy chain and the caN-kLC light chain. Nature of the test: Protein A column, fractions on SDS-PAGE probed with anti-canine IgG-HRP.
The target of test [2] is caninised anti-NGF antibody comprising the caN-HCC heavy chain and a caN-kLC light chain. Described as above.

Turning to “Staphylococcus Protein A (from UniProt P38507 37-327)”, the binding result in test [1] and in test [2] was “binds” throughout.
